Source: article PMC8745574
No constants are given. Whether binding was seen depends on the method and setting. Some results given as binding are weak or reduced against the parent protein; the word gives no strength.

T1: POT1a (Arabidopsis thaliana) (UniProt Q56Y52)
T1 sequence: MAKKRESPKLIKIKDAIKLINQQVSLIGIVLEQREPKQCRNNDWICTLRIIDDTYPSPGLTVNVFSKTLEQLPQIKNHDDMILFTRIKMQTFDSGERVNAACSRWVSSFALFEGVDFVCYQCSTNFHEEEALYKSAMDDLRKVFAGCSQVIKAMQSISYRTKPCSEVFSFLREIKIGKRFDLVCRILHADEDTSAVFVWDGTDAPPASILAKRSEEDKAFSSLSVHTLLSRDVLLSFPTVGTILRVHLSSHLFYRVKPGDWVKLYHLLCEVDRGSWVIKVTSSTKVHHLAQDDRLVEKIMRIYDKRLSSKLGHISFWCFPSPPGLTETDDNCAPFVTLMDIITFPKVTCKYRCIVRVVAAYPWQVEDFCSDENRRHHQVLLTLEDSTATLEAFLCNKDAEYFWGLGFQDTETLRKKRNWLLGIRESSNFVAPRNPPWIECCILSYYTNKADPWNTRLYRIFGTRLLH


Target: T1, POT1a (Arabidopsis thaliana)
Assay: two-hybrid; Matchmaker GAL4 system, pGADT7-DEST/pGBKT7-DEST, S. cerevisiae PJ69-4α, 30 °C; growth on -LWH plates (with increasing 3-aminotriazol) and -LWHAde plates

Row | Binder | binding
1 | MCM7, full length (protein, UniProt P43299 1-716) MKDHDFDGDKGLAKGFLENFADANGRSKYMEILQEVSNRKIRAIQVDLDDLFNYKDESEEFLGRLTENTRRYVSIFSAAVDELLPEPTEAFPDDDHDILMTQRADDGTDNPDVSDPHQQIPSEIKRYYEVYFKAPSKGRPSTIREVKASHIGQLVRISGIVTRCSDVKPLMAVAVYTCEDCGHEIYQEVTSRVFMPLFKCPSSRCRLNSKAGNPILQLRASKFLKFQEAKMQELAEHVPKGHIPRSMTVHLRGELTRKVSPGDVVEFSGIFLPIPYTGFKALRAGLVADTYLEATSVTHFKKKYEEYEFQKDEEEQIARLAEDGDIYNKLSRSLAPEIYGHEDIKKALLLLLVGAPHRQLKDGMKIRGDVHICLMGDPGVAKSQLLKHIINVAPRGVYTTGKGSSGVGLTAAVMRDQVTNEMVLEGGALVLADMGICAIDEFDKMDESDRTAIHEVMEQQTVSIAKAGITTSLNARTAVLAAANPAWGRYDLRRTPAENINLPPALLSRFDLLWLILDRADMDSDLELAKHVLHVHQTEESPALGFEPLEPNILRAYISAARRLSPYVPAELEEYIATAYSSIRQEEAKSNTPHSYTTVRTLLSILRISAALARLRFSESVAQSDVDEALRLMQMSKISLYADDRQKAGLDAISDTYSIIRDEAARSKKTHVSYANALNWISRKGYSEAQLKECLEEYAALNVWQIDPHTFDIRFI | binds
2 | Whirly1 (WHY1) (protein, UniProt Q9M9S3 1-263) MSQLLSTPLMAVNSNPRFLSSSSVLVTGGFAVKRHGFALKPTTKTVKLFSVKSRQTDYFEKQRFGDSSSSPSPAEGLPARFYVGHSIYKGKAALTVDPRAPEFVALDSGAFKLSKDGFLLLQFAPSAGVRQYDWSKKQVFSLSVTEIGTLVSLGPRESCEFFHDPFKGKSDEGKVRKVLKVEPLPDGSGHFFNLSVQNKLVNVDESIYIPITRAEFAVLISAFNFVLPYLIGWHAFANSIKPEETSRVNNASPNYGGDYEWNR | binds
3 | RAD23-3 (protein, UniProt Q84L31 1-419) MKIFVKTLKGTHFEIEVKPEDSVVDVKKNIESVQGADVYPAAKQMLIHQGKVLKDETTIEENKVAENSFIVIMMNKSKPASAAASSASAGTSQAKSIPPSTSQPSISPQTPASVSAPVAPAPTRPPPPAPTPTPAPVAATETVTTPIPEPVPATISSSTPAPDSAPVGSQGDVYGQAASNLAAGSNLESTIQQILDMGGGTWDRETVVLALRAAFNNPERAVEYLYTGIPEQAEVPPVARPPASAGQPANPPAQTQQPAAAPASGPNANPLDLFPQGLPNVGGNPGAGTLDFLRNSQQFQALRAMVQANPQVLQPMLQELGKQNPNLMRLIQDHQADFLRLINEPVEGGGESGNLLGQMAAGMPQPQAIQVTHEEREAIERLEAMGFERALVLEVFFACNKNEELAANYLLDHMHEFEE | binds
4 | RAD23-4 (protein, UniProt Q84L30 1-378) MKIFVKTLSGSNFEIEVKPADKVSDVKTAIETVKGAEYPAAKQMLIHQGKVLKDETTLEENNVVENSFIVIMLSKTKASPSGASTASAPAPSATQPQTVATPQVSAPTASVPVPTSGTATAAAPATAASVQTDVYGQAASNLVAGTTLESTVQQILDMGGGSWDRDTVVRALRAAFNNPERAVEYLYSGIPAQAEIPPVAQAPATGEQAANPLAQPQQAAAPAAATGGPNANPLNLFPQGMPAADAGAGAGNLDFLRNSQQFQALRAMVQANPQILQPMLQELGKQNPQLVRLIQEHQADFLRLINEPVEGEENVMEQLEAAMPQAVTVTPEEREAIERLEGMGFDRAMVLEVFFACNKNEELAANYLLDHMHEFEDQ | binds
5 | COG2 (protein, UniProt F4JRR1 1-756) MSDLVATSPSPSSAPRSATDFFSDPYDSHPLWFKPSLFLSPNFDSESYISELRTFVPFDTLRSELRSHLASLNRELVDLINRDYADFVNLSTKLVDIDAAVVRMRAPLLELREKITGFRGSVEAALFALRNGLQQRSDAAAAREVLELLLDTFHVVSKVEKLIKVLPSTPSDWQNEDANSMGRSSMNDENSTQQDGTTMRETQSMLLERIASEMNRLKFYMAHAQNLPFIENMEKRIQSASVLLDASLGHCFIDGLNNSDTSVLYNCLRAYAAIDNTNAAEEIFRTTIVAPFIQKIITHETTTNAAGTSEDELENDYKQIKHFIAKDCKMLLEISSTDKSGLHVFDFLANSILKEVLWAIQKVKPGAFSPGRPTEFLKNYKASLDFLAYLEGYCPSRSAVTKFRAEAICVEFMKQWNVGVYFSLRFQEIAGALDSALTSPSLVFIQDSDKESSLNLILRQSDTLLECLRSCWKEDVLVFSAADKFLRLTLQLLSRYSFWVSSALNNRKSNASPSPGCEWAVSATAEDFVYVIHDVNCLVSEVCGDYLGHISQYLSSSSTEVLDVVRISIEQGGVSLEKVLPLLTKTIIDVIVDKSVEDLRQLRGITATFRMTNKPLPVRHSPYVVGLLRPVKAFLEGDKARNYLTQKTKEELLHGSVSEITRRYYELAADVVSVARKTQSSLQKLRQNAQRRGGAASGVSDQNVSETDKMCMQLFLDIQEYGRNVSALGLKPADIPEYCSFWQCVAPADRQNSISV | binds
6 | COG5 (protein, UniProt Q9C9V9 1-832) MALPPSSPSPSSPSLQRLSTFKNPPPSSLSSGAPPPQTPSSSSSSPLDSFATDPILSPFLSSSFSSASFSSAALASGSPASTAERLHQAIRLLDSQLRNDVISRHPELLAQLSSLSHADVSLSSLRSSVSSLQSSIRRVRSDLSEPIKSIRSKSVQLSNLHTATELLSHSVRTLRLSKKLRDLADFPDPDKIDLTKAAQFHFEILTMCKEYDLFGIDVIDEEIKFVTEIGEKLRSEAMKVLERGMEGLNQAEVGTGLQVFYNLGELKSTVDQLVNKYKGMAVKSVSVAMDMKAITSGSGGGFGPGGIRSSGSPHIGGGAKVREALWQRMASCMEQLCSLVVAVWHLQRVLSKKRDPFTHVLLLDEVIKEGDSMLTDRVWDALVKAFTSQMKSAYTASSFVKEIFTMGYPKLVSMIENLLERISRDTDVKGVLPAINLERKEQMVACIAIFQTAFLSLCFGRLSDLVNSIFPMSSRGSLPSKEQISQVLSHIQDEIEAVHPDARLTLLVLREIGKALSNLAQRAECQISTGPETRQISGPATSTQIRNFTLCQHLQGIHTHISSMVADLPSIATDVLSPYLAAIYDAACEPVTPLFKAMRDKLESCILQIHDQNFGADDADMDNNASSYMEELQRSILHFRKEFLSRLLPSAANANTAGTESICTRLTRQMASRVLIFYIRHASLVRPLSEWGKLRMAKDMAELELAVGQNLFPVEQLGAPYRALRAFRPLVFLETSQMGSSPLINDLPPSIVLHHLYTRGPDELESPMQKNRLSPKQYSLWLDNQREDQIWKGIKATLDDYAVKIRSRGDKEFSPVYPLMLQIGSSLTQENL | binds
7 | COG8 (protein, UniProt Q84K25 1-569) MAMEVGEMSQPEATASLLSLASATQQPYVSELLSFTLDRLHKEPELLRVDAERIQRQMQEVAVGNYRAFITAADALLAIRQEVSSIDKHLESLIGEVPKLTSGCTEFIDSAENILEKRKMNQALLANHSTLLDLLEIPQLMDTCVRNGNFDEALDLEAFVSKLATLHPKLPVIQALAAEVRQTTQSLLSQLLQKLRSNIQLPECLRIIGYLRRIGVFGEYEMRLQFLRCREAWLTGILEDLDQKNAYEYLKGMINCHRMHLFDVVNQYRAIFSDDTSGSEENYDGGLLFSWAMHQITSHLKTLKIMLPKITEGGSLSNILDQCMYCAMGLGGVGLDFRGLLPPLFEEAVLNLFSKNMSTAVENFQLVLDSHRWVPLPSVGFPSSGINEDSKDDVTPPSYLMEHPPLAVFINGVSSALNELRPCAPLSLKNVVAHELIKGLQAVSDSLLRYNTTRMLRLSESNLFLSLCRAFVEVVFPHCATCFGRCYPGGATIVMDAKSAYEGLGRILAASSSQEPSNKSPKVISTDTKDASENGVASQPEEKQAENPNAKEEDNSPIPLQTPEITPES | binds
